Results are given in words; binding and its absence hold for the method and conditions named. Some entries that bind do so weakly or less than the wild type.
Assays:
Assay in all cases: native gel or EMSA; purified His6-tagged BiP proteins (7 µg per lane) on 7.5% Tris-glycine native gels, Coomassie stain; samples in AMPylation buffer with or without 1.5 mM ATP and GST-FICD E234G; both purified
[1] = biological target: hamster BiP E201G (His6-tagged) (Chinese hamster (Cricetulus griseus)) (UniProt G3I8R9)
[2] = biological target: hamster BiP T366A (His6-tagged) (Chinese hamster (Cricetulus griseus)) (UniProt G3I8R9)
[3] = biological target: hamster BiP T518A (His6-tagged) (Chinese hamster (Cricetulus griseus)) (UniProt G3I8R9)
[4] = biological target: hamster BiP T518E (His6-tagged) (Chinese hamster (Cricetulus griseus)) (UniProt G3I8R9)

Protein sequences, listed by entry. Tags and fused reporters are not part of them. Lines headed by an entry give the natural chain unless they say otherwise; changes in a name come on top. Chains listed by the source or under a name are the forms on record and can include a tag or linker.
hamster BiP E201G (His6-tagged) (G3I8R9, form named): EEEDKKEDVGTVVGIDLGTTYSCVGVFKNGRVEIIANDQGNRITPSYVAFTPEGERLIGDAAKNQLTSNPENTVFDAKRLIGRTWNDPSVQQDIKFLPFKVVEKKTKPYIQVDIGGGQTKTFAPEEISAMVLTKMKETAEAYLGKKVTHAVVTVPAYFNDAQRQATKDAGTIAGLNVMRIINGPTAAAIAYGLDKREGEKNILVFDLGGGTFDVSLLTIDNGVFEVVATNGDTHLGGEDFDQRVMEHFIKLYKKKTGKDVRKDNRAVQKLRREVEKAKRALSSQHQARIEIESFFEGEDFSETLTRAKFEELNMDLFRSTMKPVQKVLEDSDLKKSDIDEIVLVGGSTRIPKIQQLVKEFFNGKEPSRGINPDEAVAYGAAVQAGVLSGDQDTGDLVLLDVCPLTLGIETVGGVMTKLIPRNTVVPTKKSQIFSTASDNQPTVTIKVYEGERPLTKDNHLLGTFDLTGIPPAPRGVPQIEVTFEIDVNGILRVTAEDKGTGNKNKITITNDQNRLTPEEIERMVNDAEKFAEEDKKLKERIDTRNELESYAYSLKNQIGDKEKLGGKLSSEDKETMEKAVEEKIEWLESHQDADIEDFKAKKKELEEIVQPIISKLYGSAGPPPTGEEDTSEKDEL
hamster BiP T366A (His6-tagged) (Chinese hamster (Cricetulus griseus)) (G3I8R9, form named): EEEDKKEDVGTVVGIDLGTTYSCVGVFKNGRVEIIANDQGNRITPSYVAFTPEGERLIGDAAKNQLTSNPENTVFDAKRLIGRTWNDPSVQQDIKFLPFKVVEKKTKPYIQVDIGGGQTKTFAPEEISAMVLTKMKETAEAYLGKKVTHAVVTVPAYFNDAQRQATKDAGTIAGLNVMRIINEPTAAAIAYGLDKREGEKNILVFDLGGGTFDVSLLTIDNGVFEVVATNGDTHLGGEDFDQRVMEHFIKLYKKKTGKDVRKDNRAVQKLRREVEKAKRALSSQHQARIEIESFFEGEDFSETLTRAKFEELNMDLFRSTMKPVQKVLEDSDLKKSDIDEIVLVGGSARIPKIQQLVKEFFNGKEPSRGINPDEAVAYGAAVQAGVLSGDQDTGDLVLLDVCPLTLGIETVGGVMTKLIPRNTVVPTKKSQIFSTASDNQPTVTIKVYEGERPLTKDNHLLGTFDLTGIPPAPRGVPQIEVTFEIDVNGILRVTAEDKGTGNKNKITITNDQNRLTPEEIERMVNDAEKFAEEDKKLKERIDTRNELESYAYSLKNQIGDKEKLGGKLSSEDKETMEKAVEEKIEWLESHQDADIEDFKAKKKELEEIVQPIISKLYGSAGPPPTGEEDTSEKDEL
hamster BiP T518A (His6-tagged) (G3I8R9, form named): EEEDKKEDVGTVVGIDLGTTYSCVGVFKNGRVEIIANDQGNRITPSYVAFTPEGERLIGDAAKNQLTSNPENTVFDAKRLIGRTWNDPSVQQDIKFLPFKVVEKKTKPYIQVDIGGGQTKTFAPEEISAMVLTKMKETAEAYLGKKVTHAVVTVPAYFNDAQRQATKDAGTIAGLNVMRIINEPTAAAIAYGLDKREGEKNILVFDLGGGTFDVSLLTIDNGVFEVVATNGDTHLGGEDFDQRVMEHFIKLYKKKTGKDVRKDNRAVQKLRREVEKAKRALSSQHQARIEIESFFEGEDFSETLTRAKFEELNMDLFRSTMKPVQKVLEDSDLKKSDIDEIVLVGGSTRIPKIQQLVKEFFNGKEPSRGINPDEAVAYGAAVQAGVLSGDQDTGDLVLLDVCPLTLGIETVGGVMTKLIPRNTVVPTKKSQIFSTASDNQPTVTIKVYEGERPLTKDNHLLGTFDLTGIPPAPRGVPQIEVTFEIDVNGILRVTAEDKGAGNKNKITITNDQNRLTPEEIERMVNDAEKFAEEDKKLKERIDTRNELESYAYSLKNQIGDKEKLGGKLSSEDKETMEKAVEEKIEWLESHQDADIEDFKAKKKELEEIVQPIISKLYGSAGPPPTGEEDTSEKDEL
hamster BiP T518E (His6-tagged) (G3I8R9, form named): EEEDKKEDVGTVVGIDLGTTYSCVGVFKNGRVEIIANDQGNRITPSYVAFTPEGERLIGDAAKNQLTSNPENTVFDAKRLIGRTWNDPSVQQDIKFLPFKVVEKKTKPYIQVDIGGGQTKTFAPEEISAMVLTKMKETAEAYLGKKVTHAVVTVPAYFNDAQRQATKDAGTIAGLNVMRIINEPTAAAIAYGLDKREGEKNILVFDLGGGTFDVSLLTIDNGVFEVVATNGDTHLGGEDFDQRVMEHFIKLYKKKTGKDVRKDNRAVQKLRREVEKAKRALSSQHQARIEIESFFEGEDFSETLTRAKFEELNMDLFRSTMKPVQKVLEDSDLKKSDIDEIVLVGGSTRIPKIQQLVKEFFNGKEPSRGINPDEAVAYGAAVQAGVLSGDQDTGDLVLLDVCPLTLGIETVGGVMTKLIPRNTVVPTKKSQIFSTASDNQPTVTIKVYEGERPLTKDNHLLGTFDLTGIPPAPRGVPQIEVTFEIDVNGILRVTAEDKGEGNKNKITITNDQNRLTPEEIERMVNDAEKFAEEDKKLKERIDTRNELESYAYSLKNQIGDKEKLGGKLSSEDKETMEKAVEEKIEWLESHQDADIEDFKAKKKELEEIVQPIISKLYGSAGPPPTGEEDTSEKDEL

## hamster BiP E201G (His6-tagged) (from UniProt G3I8R9 19-654)
[1]
  binding: binds

## hamster BiP T366A (His6-tagged) (from UniProt G3I8R9 19-654)
[2]
  binding: binds

## hamster BiP T518A (His6-tagged) (from UniProt G3I8R9 19-654)
[3]
  binding: binds

## hamster BiP T518E (His6-tagged) (from UniProt G3I8R9 19-654)
[4]
  binding: binds

Source: publication PMC4739761
